Some of the results follow. The main result of the screen is listed elsewhere. These columns were measured beside it and carry no call. The list favours compounds with an active or inconclusive main result. The note in brackets gives the kind of curve behind each potency; many fits are weak.

These results are taken from PubChem BioAssay AID2685 (National Center for Advancing Translational Sciences (NCATS), 2010).

The nature of the assay: qHTS Assay for Lipid Storage Modulators in Drosophila S3 Cells.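 For cell number change: cells counted by Cell Tracker Red CMTPX staining in the red channel.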 To be noted: BODIPY lipid droplet fluorescence, 18-24 h; for cell number change: measured here: cell count max response, cells fed with added oleic acid. In outline: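 Drosophila S3 cells got compounds at several concentrations plus oleic acid (400 uM solution). Laser-scanning cytometry with 488 nm excitation read lipid droplets at 500-530 nm and cells at 575-640 nm. Percent activity was relative to 20 uM Triacsin C.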

Setting [1] is: measured here: lipid fluorescence (Fed channel) AC50, cells fed with added oleic acid.
Where [2] appears, read: measured here: cell number channel AC50, cells fed with added oleic acid.

For the compound `CCC(=O)N1CCC2(CC1)Oc1ccc(F)cc1C(=O)C21CC(c2ccc(Cl)cc2)=NO1` (centres undefined), the cell number change is 14.7%. Also, the half-maximal activity concentration (AC50) under setting [1] was 9.2 µM [rising, partial curve].
For `CN1CCN(c2cnn(-c3ccccc3)c(=O)c2Br)CC1`, the cell number change is -32.7%. Also, under setting [2], the AC50 was 0.092 µM [falling, full curve].
Consider `COc1cc(-n2c(=O)c3ccccc3n(Cc3cc(=O)n4ccccc4n3)c2=O)cc(OC)c1OC`, for which the cell number change was -28.6%. Further, the AC50 under setting [2] was 0.651 µM [falling, single point]. Moreover, the AC50 under setting [1] is 1.16 µM [falling, single point].
Consider `O=C(CN(C(=O)CCC(=O)Nc1ccccn1)c1ccc(F)cc1)NCc1ccc(F)cc1`, for which the cell number change came out at 5.13%. Further, the AC50 under setting [1] was 0.116 µM [falling, single point].
Consider `O=C(COc1ccc(Cl)cc1Br)Nc1ccncc1`, for which the cell number change is 2.81%. Further, under setting [1], the AC50 is 18.4 µM [falling, single point].
In the case of `Cc1cccc(/C(N)=N/OC(=O)COc2ccc(Cl)cc2)c1`, the cell number change worked out at 7.1%. The half-maximal activity concentration (AC50) under setting [2] was 6.51 µM [rising, single point].
On to `Cc1nc(N2CCN(c3ccccn3)CC2)c2c(C)c(C(=O)Nc3c(F)cc(F)cc3Br)sc2n1`, for which the cell number change amounted to 33.9%. Further, under setting [2], the AC50 was 0.0326 µM [rising, full curve, poor fit]. Further, under setting [1], the AC50 was 18.4 µM [falling, partial curve].
As for `Cc1ccc(C2c3c(oc4ccccc4c3=O)C(=O)N2c2nncs2)cc1` (centres undefined), the concentration at half-maximal activity (AC50) under setting [2] is 0.00461 µM [falling, full curve, poor fit].
For `CN1C(=O)Cn2c1nc1ccccc12`, the cell number change is 10.8%.
On to `O=C(NCCc1cccnc1)c1cc(COc2ccc(F)cc2Cl)on1`, for which the cell number change was -25.2%.
`Cc1cc(N2CCCC2)ccc1NC(=O)CN1C(=O)NC(C)(c2ccccc2)C1=O` (centres undefined): the cell number change is 25.2%. Further, the AC50 under setting [1] was 29.1 µM [rising, single point].
With `O=C(CCSCCC(=O)NCc1ccco1)NCc1ccco1`, the cell number change is -21.5%. The half-maximal activity concentration (AC50) under setting [2] was 0.82 µM [falling, full curve, poor fit]. Besides, the AC50 under setting [1] is 20.6 µM [falling, single point].
For the compound `Cc1nonc1OCCn1nnnc1N`, the cell number change is -76.1%. Further, the AC50 under setting [2] was 18.4 µM [falling, partial curve, poor fit]. Further, the half-maximal activity concentration (AC50) under setting [1] was 2.06 µM [falling, full curve].
Consider `O=C(NCn1cnccc1=O)c1ccccc1`, for which, under setting [1], the AC50 is 18.4 µM [falling, partial curve].
As for `COc1ccccc1NC(=O)N[C@@H](Cc1c[nH]c2ccccc12)C(=O)NN`, the cell number change was 30.6%. Further, the AC50 under setting [2] was 0.0517 µM [rising, full curve, poor fit].
Take `Cc1cccc(NC(=O)CSc2nnc(NC(=O)c3ccco3)s2)c1`: the cell number change was -7.29%. In addition, the AC50 under setting [2] was 5.8 µM [falling, single point]. The AC50 under setting [1] is 3.66 µM [falling, partial curve].
With `O=C1NC(=S)SC1=C1CCCC1`, the cell number change was -2.42%. Moreover, under setting [2], the AC50 was 0.58 µM [falling, full curve]. Besides, the concentration at half-maximal activity (AC50) under setting [1] was 6.51 µM [falling, single point].
With `CCOC(=O)c1c(-c2cccs2)csc1NC(=O)CNCCN1CCOCC1`, the cell number change is -11.2%. Also, the AC50 under setting [1] is 0.82 µM [rising, single point].
As to `Cc1ccc(CNC(=O)C(=O)NCC2OCCCN2S(=O)(=O)c2cccs2)cc1` (centres undefined), the cell number change worked out at 39.3%. The AC50 under setting [1] was 14.6 µM [rising, partial curve, poor fit].
Regarding `O=C(CN(CCN1CCOCC1)C(=O)Cn1nnc(-c2ccc(F)cc2)n1)NC1CCCCC1`, the cell number change is 9.75%. In addition, the AC50 under setting [2] was 0.0461 µM [rising, full curve, poor fit].
Regarding `CC(N)(C(=O)O)c1cccc(OCc2cccc(Cl)c2)c1` (centres undefined), the cell number change worked out at 30.7%.
For `COc1ccc(S(=O)(=O)N2CCCCCC2)cc1NC(=O)c1c2c(nc3ccccc13)CCN(Cc1ccccc1)C2`, the cell number change amounted to 6.13%. Besides, under setting [1], the AC50 was 23.1 µM [falling, partial curve].
`Cc1ccc(C(=O)Nc2cccc(C(=O)O)c2)cc1S(=O)(=O)N1CCOCC1`: the cell number change is -38.4%. For the same compound, the AC50 under setting [2] was 11.6 µM [falling, partial curve].
In the case of `O=C(c1ccccc1S(=O)(=O)NCc1ccccc1)N1CCCCC1`, the cell number change was -7.8%. Moreover, the AC50 under setting [1] is 0.206 µM [falling, full curve].
Consider `O=C(Nc1cccnc1)c1sc(Nc2ccccc2F)nc1-c1ccccc1`, for which the AC50 reads like this: under setting [2], 0.651 µM [rising, single point]; under setting [1], 0.651 µM [rising, single point].
For the compound `O=C(N=C1SC2CS(=O)(=O)CC2N1CCc1ccc(F)cc1)C1CCCCC1` (centres undefined), the cell number change was -15.2%.
Consider `CC1(C)CC(=O)C(N=Nc2ccc(OC(F)F)cc2)=C(O)C1`, for which the cell number change worked out at 19.3%. For the same compound, under setting [2], the AC50 is 0.231 µM [rising, full curve, poor fit].
Regarding `CCOC(=O)c1cnc2ccc(OC)cc2c1Nc1ccc2c(c1)OCCO2`, the cell number change is -37.6%. In addition, the AC50 under setting [2] was 32.6 µM [falling, single point]. Under setting [1], the AC50 was 8.2 µM [falling, partial curve].
With `Cc1csc(=O)n1CC(=O)OCC(=O)Nc1ccc(F)c(F)c1`, the cell number change stood at 218%. Also, the AC50 under setting [2] was 29.1 µM [rising, single point]. For the same compound, under setting [1], the AC50 was 14.6 µM [rising, partial curve].
As to `Cc1ccc(C)c(-n2c(-c3csc(C)c3)n[nH]c2=S)c1`, the cell number change was 16.2%. The AC50 under setting [1] was 0.651 µM [falling, full curve, poor fit].
With `CSc1ccccc1NC(=O)CN(C)C(=O)CNc1ccc(C(F)(F)F)cc1[N+](=O)[O-]`, the cell number change came out at 1.61%. Further, the AC50 under setting [1] was 29.1 µM [falling, single point].
Take `Cc1ccsc1/C=C(/C#N)C(=O)NCc1ccccc1`: the cell number change was 11.3%.
In the case of `Cc1cc(C)c(C2=CSC3=NS(=O)(=O)CCN23)c(C)c1`, the cell number change stood at 2.2%. Also, the AC50 under setting [1] is 0.259 µM [falling, partial curve, poor fit].
For `CN1CCC(OC(=O)c2cc3cc(Cl)cc(Cl)c3oc2=O)CC1`, the cell number change is 22%. The AC50 under setting [1] was 8.2 µM [rising, partial curve, poor fit].
With `O=C(Nc1cccc(S(=O)(=O)NC2=NCCC2)c1)c1c(F)cccc1Cl`, the cell number change turned out to be 0.803%.
For the compound `Cc1csc(=O)n1CC(=O)OCC(=O)c1c(N)n(CC(C)C)c(=O)n(C)c1=O`, the cell number change was 36.7%. For the same compound, under setting [2], the AC50 was 10.3 µM [rising, partial curve].
In the case of `Cc1ccc2c(c1)[nH]c1c(=O)n(Cc3ccco3)cnc12`, the AC50 runs as follows: under setting [2], 0.00517 µM [rising, full curve, poor fit]; under setting [1], 0.0116 µM [rising, full curve, poor fit].
Turning to `Cc1ccccc1NC(=O)C1CC(=O)N(Cc2ccccc2)C1` (centres undefined), the cell number change worked out at 29%. Besides, the AC50 under setting [1] is 5.8 µM [rising, full curve, poor fit].
Consider `O=C(N1CCOCC1)N1CCc2ccccc21`, for which the cell number change was determined as 4.05%. In addition, the concentration at half-maximal activity (AC50) under setting [1] was 29.1 µM [falling, single point].
With `CC(=O)Nc1ccc(S(=O)(=O)Nc2cccc(-c3nc4ccccc4o3)c2)cc1`, under setting [1], the AC50 was 29.1 µM [rising, partial curve].
For the compound `CSc1ncc(CN2CCN(CCC(C)C)C(CCO)C2)cn1` (centres undefined), the cell number change is 7.12%. Further, the AC50 under setting [1] is 23.1 µM [rising, partial curve].
As to `O=C(COC(=O)c1ccc(Cl)nc1)NC1CCCCCC1`, the cell number change came to 13.5%. Also, the AC50 under setting [1] was 1.84 µM [rising, single point].
Turning to `COc1cc(NC(=S)NC(=O)c2ccc(C)cc2C)ccc1NC(=O)c1cccs1`, the AC50 under setting [1] was 0.517 µM [falling, single point].
As for `O=C(/C=C/c1ccc(Cl)cc1)OCC(=O)c1ccc[nH]1`, the cell number change was -10.4%. Besides, the AC50 under setting [1] is 32.6 µM [falling, single point].
As for `COc1cccc(NC(=O)CC2COc3ccccc3O2)c1` (centres undefined), the cell number change is -13.8%. Moreover, the AC50 under setting [1] is 29.1 µM [rising, single point].
On to `Cc1nonc1CN(C)C(=O)CC1C(=O)NCCN1Cc1ccc(F)c(F)c1` (centres undefined), for which the cell number change was -16.9%.
On to `O=C(NCc1ccc(Cl)cc1)c1cccc(S(=O)(=O)N2CCCC2)c1`, for which the cell number change was -4.39%. For the same compound, under setting [1], the AC50 was 3.26 µM [falling, single point].
For the compound `O=C(c1ccc(CNc2c(N3CCCC3)c(=O)c2=O)cc1)N1CCN(C2CCCCC2)CC1`, the cell number change is -29.9%. Besides, under setting [2], the AC50 was 0.0184 µM [falling, full curve, poor fit]. Further, the AC50 under setting [1] was 0.146 µM [falling, full curve].
Take `O=c1[nH]c(Cc2cccs2)nc2ccccc12`: the cell number change stood at 37.4%. Under setting [2], the AC50 is 29.1 µM [rising, single point]. The AC50 under setting [1] is 7.31 µM [falling, partial curve, poor fit].
On to `Cc1nc([N+](=O)[O-])c(C(=O)O)n1C`, for which the cell number change turned out to be 10.5%. The AC50 under setting [2] was 3.66 µM [falling, single point]. In addition, the AC50 under setting [1] is 5.17 µM [falling, single point].
Turning to `C=CCN1C(=O)C(Cc2ccc(F)cc2)S/C1=N/N=C/c1ccco1` (centres undefined), the cell number change is -9.44%. The concentration at half-maximal activity (AC50) under setting [1] is 0.00517 µM [falling, full curve, poor fit].
In the case of `Cc1cc(Br)ccc1OCC(=O)NNC(=O)C(=O)Nc1ccccc1`, the cell number change was determined as 31.3%. Moreover, the AC50 under setting [2] is 18.4 µM [rising, partial curve, poor fit].
For the compound `NS(=O)(=O)c1cccc(NC(=O)CNC(=O)CC23CC4CC(CC(C4)C2)C3)c1`, the cell number change is -4.93%.
Consider `Cc1ccc(CNC(=O)CSc2nc3n[nH]c(C)c3c(=N)n2-c2cccc(C)c2)cc1`, for which the AC50 was 0.291 µM [rising, partial curve, poor fit] under setting [2] and 6.51 µM [rising, partial curve, poor fit] under setting [1].
Consider `CC(=O)c1ccc(OCCCCCCCOc2ccc(C(C)=O)cc2)cc1`, for which the cell number change was found to be 12.9%. The AC50 under setting [1] is 6.51 µM [falling, single point].
With `O=C(Nc1ccc(S(=O)(=O)N2CCCCC2)cc1)c1ccncc1`, the cell number change was -12.9%.
For the compound `CCOC(=O)C(Cc1ccccc1)NC(=O)CCc1nnc2ccc(N3CCCCC3)nn12` (centres undefined), the cell number change was -33.1%. For the same compound, under setting [2], the AC50 was 0.103 µM [falling, full curve, poor fit].
For `CCN1CCN(c2ccc(NC(=O)CCc3c(C)nc4c(-c5ccccc5)c(C)nn4c3C)cc2)CC1`, the cell number change was -35.9%. The AC50 under setting [2] is 29.1 µM [falling, single point].
